According to article PMC11552638:
These are yes or no findings as the source states them, for the method shown. Binding seen in cells or lysates may run through a third protein. Some results given as binding are weak or reduced against the parent protein; the word gives no strength.

Amino acid sequences for entries named in this document (tags omitted).
UniProt Q14739: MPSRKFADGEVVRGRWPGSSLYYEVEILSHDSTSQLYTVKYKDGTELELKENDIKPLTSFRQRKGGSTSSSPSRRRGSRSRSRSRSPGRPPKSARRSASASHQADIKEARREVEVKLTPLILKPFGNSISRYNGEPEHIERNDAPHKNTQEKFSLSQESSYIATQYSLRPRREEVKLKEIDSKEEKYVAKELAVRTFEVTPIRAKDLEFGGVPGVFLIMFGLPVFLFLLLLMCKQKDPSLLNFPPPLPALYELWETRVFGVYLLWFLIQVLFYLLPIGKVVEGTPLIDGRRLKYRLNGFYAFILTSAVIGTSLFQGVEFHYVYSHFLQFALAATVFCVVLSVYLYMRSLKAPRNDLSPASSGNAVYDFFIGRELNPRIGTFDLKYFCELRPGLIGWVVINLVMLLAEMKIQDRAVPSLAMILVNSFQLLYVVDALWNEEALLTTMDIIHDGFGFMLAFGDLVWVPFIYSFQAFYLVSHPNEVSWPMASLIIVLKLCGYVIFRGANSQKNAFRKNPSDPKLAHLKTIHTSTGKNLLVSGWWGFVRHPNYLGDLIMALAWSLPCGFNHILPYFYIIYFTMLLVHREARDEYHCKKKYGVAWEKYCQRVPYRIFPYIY
UniProt P45973: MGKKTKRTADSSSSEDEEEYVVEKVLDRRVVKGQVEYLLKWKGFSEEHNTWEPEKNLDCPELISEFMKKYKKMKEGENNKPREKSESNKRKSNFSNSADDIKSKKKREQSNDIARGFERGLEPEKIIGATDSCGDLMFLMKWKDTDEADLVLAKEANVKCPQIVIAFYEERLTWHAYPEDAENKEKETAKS
UniProt P20700: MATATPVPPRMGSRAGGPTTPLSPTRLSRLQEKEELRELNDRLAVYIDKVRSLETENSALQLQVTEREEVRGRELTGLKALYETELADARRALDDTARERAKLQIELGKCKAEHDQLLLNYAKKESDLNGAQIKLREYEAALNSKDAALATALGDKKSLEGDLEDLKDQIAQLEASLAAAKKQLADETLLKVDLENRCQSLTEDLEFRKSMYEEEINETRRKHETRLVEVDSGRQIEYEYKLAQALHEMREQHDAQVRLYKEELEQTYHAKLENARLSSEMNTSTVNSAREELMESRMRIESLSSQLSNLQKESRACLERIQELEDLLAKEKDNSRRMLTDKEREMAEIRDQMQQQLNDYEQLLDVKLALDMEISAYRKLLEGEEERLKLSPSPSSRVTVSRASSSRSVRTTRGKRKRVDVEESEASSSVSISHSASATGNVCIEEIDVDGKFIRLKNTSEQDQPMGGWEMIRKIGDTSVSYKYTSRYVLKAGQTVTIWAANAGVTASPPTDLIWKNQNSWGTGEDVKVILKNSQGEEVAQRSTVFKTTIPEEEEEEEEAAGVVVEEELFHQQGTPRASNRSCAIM
UniProt Q92769: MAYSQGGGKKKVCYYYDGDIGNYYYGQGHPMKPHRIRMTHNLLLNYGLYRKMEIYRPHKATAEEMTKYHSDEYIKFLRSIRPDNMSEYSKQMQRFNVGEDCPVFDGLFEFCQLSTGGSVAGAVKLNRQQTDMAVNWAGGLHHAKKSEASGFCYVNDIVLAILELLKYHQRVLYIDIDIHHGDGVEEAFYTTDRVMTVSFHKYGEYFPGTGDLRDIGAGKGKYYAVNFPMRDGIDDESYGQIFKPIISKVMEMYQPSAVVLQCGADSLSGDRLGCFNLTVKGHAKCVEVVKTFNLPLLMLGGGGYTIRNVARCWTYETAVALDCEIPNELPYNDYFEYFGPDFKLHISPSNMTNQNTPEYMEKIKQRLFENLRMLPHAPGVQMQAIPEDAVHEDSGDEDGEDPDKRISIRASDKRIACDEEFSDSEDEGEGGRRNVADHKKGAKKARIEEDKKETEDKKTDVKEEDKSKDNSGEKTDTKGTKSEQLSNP

Experiments:
[1] = target: Lamin B receptor, LBR (human (endogenous in WI38hTERT, GM639 and NHDF fibroblasts)) (UniProt Q14739); test: proximity ligation; PLA in situ (DuoLink, anti-mouse and anti-rabbit probes) with pairs of primary antibodies on formaldehyde-fixed, methanol- and Triton-permeabilised human fibroblasts (GM639 and derivatives, WI38hTERT, NHDF); foci per nucleus or nuclear MFI; also in cells lacking or depleted of WRN, HDAC2, HDAC1 or HP1α, in replicatively senescing cells and in RAF oncogene-induced senescence (4-HT)
[2] = target: heterochromatin protein 1 alpha (HP1α) (human (endogenous in GM639, WI38hTERT and NHDF fibroblasts)) (UniProt P45973); test: as above

Substance | binding [1] | binding [2]
Lamin B1 (from UniProt P20700 1-586) | binds | 
V5-tagged version of HDAC2 (from UniProt Q92769 1-488) |  | binds
heterochromatin protein 1 alpha (HP1α) (from UniProt P45973 1-191) | binds | 
histone deacetylase 2, HDAC2 (from UniProt Q92769 1-488) |  | binds
